Results are given in words; binding and its absence hold for the method and conditions named. Some entries that bind do so weakly or less than the wild type.
Legend:
[1] = target: recombinant hTACSTD2-Fc-His protein (Creative BioMart) (human) (UniProt P09758); assay: low-density antigen-coated ELISA, culture supernatants
[2] = target: recombinant hTACSTD2-Fc-His protein (Creative BioMart) (human) (UniProt P09758); assay: low-density antigen-coated ELISA, plate coated with 0.1 µg/mL hTROP-2 (hTACSTD2-Fc-His)
[3] = target: recombinant hTACSTD2-Fc-His protein (Creative BioMart) (human) (UniProt P09758); assay: high-density antigen-coated ELISA, plate coated with 1 µg/mL hTROP-2

By UniProt entry, the sequences of proteins in these tests, tags left out. Where a name states a change or a piece, a line headed by the entry shows the natural chain unless it says otherwise.
UniProt P09758: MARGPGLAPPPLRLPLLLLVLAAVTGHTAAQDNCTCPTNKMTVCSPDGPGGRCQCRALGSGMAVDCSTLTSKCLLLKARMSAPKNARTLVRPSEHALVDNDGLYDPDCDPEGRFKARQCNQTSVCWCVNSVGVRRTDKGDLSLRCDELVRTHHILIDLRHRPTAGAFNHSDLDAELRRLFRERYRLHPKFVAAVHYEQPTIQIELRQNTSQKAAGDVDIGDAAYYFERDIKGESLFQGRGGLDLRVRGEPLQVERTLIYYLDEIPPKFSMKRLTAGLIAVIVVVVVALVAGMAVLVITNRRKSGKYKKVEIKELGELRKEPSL

| Binder | binding [1] | binding [2] | binding [3] |
| --- | --- | --- | --- |
| HuK5-70-2 antibody (HuK5-70 R44G mutant antibody) (antibody, V domains shown) VH: QVQLVQSGAEVKKPGASVKVSCKASGYTFTIYWINWVRQAPGQGLEWIGNIYPSDSYTNYNQKFKDKATLTVDTSASTAYMELSSLRSEDTAVYYCTRTSMADYWGQGTLVTVSS VL: EIVLTQSPATLSLSPGERATLSCRASQSIGTSIHWYQQKPGQAPRLLIKYASESISGIPARFSGSGSGTDFTLTISSLEPEDFAVYYCQQSNSWPFTFGQGTKVEIK | binds | binds | binds |
| humanized K5-70 antibody (HuK5-70) (antibody, V domains shown) VH: QVQLVQSGAEVKKPGASVKVSCKASGYTFTIYWINWVRQAPGQRLEWIGNIYPSDSYTNYNQKFKDKATLTVDTSASTAYMELSSLRSEDTAVYYCTRTSMADYWGQGTLVTVSS VL: EIVLTQSPATLSLSPGERATLSCRASQSIGTSIHWYQQKPGQAPRLLIKYASESISGIPARFSGSGSGTDFTLTISSLEPEDFAVYYCQQSNSWPFTFGQGTKVEIK |  |  | binds |

Reference: US20130344509A1 (published 2013)
